Measured values reported in the supplement of paper PMC11732987, “Enantioselective OTUD7B fragment discovery through chemoproteomics screening and high-throughput optimisation” (Communications Chemistry, 2025).
Some of the results follow. The data scatter; read single values as rough.

The chains behind the UniProt entries cited, without tags or fusion partners. Where a name states a change or a piece, a line headed by the entry shows the natural chain unless it says otherwise. Residues count along the entry.
UniProt Q7Z333: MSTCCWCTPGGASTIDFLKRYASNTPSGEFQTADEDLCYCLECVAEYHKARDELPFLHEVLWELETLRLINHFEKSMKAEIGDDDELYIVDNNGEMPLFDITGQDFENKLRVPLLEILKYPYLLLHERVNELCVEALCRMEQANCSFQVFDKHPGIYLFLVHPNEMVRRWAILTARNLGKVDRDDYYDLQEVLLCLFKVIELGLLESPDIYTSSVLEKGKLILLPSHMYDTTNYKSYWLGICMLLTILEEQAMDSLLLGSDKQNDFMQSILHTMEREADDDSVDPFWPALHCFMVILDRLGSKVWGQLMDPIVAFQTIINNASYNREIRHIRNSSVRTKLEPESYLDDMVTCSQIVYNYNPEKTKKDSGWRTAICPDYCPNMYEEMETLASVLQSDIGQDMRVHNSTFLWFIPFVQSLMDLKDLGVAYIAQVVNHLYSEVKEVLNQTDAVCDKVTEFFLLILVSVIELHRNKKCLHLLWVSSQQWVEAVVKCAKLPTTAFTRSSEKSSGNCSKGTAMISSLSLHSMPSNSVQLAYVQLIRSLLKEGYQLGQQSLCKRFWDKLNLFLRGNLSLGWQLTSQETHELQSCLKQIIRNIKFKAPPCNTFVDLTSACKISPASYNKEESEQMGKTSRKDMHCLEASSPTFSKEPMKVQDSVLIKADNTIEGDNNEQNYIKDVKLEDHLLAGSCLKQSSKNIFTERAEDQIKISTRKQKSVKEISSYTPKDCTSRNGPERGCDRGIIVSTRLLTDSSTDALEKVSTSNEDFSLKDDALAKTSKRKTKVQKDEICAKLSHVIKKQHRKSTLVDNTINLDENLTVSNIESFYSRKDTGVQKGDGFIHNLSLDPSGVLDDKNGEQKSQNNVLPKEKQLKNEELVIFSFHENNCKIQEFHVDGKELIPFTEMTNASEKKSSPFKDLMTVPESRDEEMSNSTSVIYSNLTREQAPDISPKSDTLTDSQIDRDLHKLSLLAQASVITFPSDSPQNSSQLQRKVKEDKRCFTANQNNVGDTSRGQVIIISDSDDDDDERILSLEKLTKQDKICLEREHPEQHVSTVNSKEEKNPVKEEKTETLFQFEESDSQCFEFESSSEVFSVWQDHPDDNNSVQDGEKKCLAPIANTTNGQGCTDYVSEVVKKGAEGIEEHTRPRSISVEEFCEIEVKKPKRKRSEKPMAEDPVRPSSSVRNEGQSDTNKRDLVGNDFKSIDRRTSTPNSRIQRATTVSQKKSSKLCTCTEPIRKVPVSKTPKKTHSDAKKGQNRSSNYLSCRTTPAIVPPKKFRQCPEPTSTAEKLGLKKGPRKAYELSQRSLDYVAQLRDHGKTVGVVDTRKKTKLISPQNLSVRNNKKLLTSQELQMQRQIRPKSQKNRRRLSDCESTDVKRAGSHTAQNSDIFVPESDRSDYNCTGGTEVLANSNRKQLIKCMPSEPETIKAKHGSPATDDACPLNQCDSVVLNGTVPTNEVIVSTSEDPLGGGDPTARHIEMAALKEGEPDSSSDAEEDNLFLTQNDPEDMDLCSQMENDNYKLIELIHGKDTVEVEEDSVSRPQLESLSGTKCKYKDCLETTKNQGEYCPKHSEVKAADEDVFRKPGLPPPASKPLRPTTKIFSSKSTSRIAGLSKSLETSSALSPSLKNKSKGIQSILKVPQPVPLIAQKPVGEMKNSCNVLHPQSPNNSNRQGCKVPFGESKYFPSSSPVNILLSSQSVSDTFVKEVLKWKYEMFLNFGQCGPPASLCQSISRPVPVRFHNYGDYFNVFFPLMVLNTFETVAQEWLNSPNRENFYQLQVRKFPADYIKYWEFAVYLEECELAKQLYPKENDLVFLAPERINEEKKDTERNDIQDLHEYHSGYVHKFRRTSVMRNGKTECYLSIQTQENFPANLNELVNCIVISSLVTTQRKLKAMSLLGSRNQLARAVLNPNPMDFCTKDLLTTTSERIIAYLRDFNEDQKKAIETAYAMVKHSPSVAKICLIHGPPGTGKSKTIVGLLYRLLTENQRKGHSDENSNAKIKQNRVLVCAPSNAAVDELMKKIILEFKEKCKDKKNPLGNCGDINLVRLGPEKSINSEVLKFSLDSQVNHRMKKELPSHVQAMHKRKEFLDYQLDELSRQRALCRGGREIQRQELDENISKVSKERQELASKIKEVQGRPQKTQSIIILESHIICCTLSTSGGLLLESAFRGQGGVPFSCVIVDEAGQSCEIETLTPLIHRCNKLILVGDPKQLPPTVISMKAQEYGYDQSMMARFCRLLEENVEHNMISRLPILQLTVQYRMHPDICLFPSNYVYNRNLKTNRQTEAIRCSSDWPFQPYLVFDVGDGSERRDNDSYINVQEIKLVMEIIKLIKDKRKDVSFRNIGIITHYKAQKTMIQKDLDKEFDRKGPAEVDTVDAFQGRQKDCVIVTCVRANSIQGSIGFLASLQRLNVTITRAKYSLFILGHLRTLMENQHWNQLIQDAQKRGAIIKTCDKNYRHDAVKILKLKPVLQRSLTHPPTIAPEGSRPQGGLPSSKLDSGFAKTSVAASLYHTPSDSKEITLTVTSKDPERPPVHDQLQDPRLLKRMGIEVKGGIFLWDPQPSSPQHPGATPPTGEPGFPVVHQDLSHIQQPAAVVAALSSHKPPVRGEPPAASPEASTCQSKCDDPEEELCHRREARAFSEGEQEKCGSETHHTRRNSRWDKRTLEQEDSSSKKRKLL
UniProt Q14141: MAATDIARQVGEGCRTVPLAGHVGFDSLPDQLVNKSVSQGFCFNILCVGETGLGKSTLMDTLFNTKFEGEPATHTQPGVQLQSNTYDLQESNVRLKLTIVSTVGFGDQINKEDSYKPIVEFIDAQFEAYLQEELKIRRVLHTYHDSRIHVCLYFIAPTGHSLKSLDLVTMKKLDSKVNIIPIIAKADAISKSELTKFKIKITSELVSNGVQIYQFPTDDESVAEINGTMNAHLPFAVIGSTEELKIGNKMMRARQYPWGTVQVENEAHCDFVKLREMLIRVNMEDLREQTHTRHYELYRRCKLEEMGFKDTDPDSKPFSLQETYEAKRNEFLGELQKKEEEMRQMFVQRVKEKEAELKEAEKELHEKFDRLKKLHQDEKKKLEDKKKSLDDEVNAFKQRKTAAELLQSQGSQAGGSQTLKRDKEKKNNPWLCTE
UniProt Q96IW7, 12-34: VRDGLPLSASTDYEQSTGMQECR
UniProt Q15436: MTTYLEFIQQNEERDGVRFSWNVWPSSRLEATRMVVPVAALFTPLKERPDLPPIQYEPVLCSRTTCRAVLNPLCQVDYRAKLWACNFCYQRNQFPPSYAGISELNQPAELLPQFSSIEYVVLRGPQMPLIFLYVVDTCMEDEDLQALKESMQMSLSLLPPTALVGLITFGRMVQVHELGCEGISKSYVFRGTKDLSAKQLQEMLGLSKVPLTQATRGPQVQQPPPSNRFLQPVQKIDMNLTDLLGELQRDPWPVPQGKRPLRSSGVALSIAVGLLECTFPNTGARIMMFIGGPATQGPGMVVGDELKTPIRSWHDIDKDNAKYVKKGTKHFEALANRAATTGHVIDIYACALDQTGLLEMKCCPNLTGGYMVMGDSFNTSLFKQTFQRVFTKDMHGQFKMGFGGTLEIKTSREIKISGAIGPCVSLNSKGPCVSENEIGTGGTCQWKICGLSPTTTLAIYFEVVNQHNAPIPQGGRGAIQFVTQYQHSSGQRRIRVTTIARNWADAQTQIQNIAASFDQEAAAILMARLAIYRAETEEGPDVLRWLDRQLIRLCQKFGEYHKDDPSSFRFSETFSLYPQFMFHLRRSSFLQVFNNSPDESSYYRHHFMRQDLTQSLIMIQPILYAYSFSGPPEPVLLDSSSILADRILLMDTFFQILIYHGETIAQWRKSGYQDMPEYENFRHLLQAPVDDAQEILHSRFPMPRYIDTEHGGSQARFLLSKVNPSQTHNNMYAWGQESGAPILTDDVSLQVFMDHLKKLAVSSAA
UniProt O95248: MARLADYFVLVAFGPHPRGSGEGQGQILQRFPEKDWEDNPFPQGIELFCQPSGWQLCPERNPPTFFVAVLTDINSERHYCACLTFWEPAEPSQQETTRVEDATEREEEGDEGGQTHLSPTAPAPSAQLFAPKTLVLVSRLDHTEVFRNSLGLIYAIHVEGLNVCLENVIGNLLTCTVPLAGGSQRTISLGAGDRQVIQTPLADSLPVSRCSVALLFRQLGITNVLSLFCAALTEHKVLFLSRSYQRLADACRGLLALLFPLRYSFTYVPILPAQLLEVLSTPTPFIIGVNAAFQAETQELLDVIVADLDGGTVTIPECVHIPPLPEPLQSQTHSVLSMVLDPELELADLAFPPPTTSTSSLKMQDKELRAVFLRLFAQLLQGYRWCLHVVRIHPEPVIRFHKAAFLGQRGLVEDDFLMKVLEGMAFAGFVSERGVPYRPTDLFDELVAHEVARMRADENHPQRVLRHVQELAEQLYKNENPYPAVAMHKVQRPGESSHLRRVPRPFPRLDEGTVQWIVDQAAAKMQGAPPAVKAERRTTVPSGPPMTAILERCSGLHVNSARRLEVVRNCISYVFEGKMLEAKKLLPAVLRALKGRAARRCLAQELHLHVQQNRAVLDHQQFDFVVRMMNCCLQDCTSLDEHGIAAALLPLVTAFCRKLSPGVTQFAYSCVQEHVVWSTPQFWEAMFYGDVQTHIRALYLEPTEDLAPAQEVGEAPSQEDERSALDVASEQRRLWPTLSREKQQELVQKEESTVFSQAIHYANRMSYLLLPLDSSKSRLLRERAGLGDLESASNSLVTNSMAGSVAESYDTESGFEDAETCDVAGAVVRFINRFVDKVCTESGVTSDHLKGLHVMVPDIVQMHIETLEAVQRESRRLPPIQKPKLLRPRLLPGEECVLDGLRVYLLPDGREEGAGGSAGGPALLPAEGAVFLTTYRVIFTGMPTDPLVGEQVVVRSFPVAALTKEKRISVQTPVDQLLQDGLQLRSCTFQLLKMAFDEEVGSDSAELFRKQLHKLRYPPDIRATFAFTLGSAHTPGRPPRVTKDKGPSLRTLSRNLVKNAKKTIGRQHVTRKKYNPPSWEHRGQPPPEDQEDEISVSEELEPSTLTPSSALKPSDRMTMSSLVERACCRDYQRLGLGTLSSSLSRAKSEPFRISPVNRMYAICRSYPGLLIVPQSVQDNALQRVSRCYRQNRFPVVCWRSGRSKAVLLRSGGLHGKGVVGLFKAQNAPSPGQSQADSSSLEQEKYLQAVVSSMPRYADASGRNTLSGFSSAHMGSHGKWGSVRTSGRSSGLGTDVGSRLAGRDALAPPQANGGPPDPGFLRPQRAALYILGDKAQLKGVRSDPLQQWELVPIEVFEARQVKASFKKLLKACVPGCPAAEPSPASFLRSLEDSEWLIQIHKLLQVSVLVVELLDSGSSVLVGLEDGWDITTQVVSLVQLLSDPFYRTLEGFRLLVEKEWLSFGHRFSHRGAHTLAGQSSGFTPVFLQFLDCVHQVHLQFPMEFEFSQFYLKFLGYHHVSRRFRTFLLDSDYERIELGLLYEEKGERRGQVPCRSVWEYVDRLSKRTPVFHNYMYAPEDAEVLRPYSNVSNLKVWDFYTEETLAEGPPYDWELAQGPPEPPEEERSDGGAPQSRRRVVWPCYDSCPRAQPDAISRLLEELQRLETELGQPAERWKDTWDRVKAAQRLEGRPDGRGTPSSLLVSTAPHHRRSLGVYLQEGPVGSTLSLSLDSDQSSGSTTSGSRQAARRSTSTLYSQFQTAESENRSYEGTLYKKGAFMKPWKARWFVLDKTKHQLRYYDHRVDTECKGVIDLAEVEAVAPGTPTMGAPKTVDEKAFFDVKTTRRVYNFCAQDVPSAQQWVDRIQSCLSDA
UniProt Q96GA7: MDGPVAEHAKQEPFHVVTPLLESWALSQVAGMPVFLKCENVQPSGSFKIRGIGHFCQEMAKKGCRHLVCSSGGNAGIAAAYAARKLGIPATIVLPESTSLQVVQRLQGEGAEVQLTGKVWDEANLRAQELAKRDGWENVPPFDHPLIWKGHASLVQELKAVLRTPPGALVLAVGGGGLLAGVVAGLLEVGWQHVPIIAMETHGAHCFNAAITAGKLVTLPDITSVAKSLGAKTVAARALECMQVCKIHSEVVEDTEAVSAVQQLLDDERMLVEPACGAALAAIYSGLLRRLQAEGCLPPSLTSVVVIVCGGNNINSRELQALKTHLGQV
UniProt O00560, 230-250: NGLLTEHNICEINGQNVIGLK
UniProt Q9BX95: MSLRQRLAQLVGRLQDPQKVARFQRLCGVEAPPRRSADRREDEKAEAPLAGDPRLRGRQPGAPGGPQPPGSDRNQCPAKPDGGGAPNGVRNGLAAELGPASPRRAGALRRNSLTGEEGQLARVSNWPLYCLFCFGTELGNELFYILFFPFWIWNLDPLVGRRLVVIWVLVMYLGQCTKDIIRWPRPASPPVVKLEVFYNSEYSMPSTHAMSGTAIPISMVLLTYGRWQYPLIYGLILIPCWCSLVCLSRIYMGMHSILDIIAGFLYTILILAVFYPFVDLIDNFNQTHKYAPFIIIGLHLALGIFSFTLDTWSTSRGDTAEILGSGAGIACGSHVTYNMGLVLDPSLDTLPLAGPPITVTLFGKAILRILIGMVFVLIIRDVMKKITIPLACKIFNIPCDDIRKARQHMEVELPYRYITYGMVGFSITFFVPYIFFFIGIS
UniProt Q9P0V9, 325-351: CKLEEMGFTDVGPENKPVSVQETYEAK

Tests used:
[1] = compound: ClCC(=O)N[C@@H]1CCCc2ccccc12; assay: log2 mean competition ratio of IA-DTB cysteine labelling (DMSO/compound) (log2 ratio); higher = stronger cysteine engagement by compound; conditions: treatment time: 4 h, cell line lysate: HEK293T
Procedure: (§1)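 IA-DTB competitive cysteine chemoproteomics in HEK293T RIPA lysate. Lysates were treated with compound 29 or 30 at 50 or 200 µM for 4 h, then IA-DTB (500 µM, 1 h), trypsin-digested, NeutrAvidin-enriched and analysed by diaPASEF. Competition ratio = intensity DMSO / intensity compound (n=4 treated, n=64 DMSO); binding: mean log2 CR ≥ 1 and p ≤ 0.05 plus QC filters. Target is the cysteine site.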

[2] = compound: ClCC(=O)N[C@H]1CCCc2ccccc12; assay: as above; conditions: treatment time: 4 h, cell line lysate: HEK293T
Procedure: as §1

Row | Target | log2 mean competition ratio ([1]; 50 µM) | log2 mean competition ratio ([1]; 200 µM) | log2 mean competition ratio ([2]; 50 µM) | log2 mean competition ratio ([2]; 200 µM)
1 | SECISBP2 C489 (UniProt Q96T21) | 0.0659 | 0.148 | -0.118 | 0.187
2 | SIPA1L1 C105 (UniProt O43166) | -0.4 | -0.00992 | 0.192 | -0.0594
3 | SEC31A C644 | 0.117 | -0.553 | 0.392 | -0.406
4 | SBNO2 C643 (UniProt Q9Y2G9) | 0.122 | -0.145 | 0.453 | 0.21
5 | SART1 C674 (UniProt O43290) | -0.0658 | -0.184 | -0.0165 | -0.0858
6 | SHTN1 C442 (UniProt A0MZ66) | 0.227 | -0.0683 | -0.138 | 0.0856
7 | SH3PXD2B C598 (UniProt A1X283) | 0.375 | 0.00509 | 0.0674 | -0.0596
8 | SETDB1 C92 (UniProt Q15047) | 0.158 | 0.0114 | -0.151 | 0.0639
9 | SCLY C316 (UniProt Q96I15) | -0.04 | 0.00268 | 0.116 | -0.157
10 | SGO2 C582 (UniProt Q562F6) | -0.501 | 0.291 | 0.0375 | -0.0301
11 | SEPTIN7 C204 (UniProt Q16181) | -0.108 | -0.49 | 0.283 | -0.384
12 | SECISBP2 C644 (UniProt Q96T21) | -0.221 | -0.0174 | -0.349 | 0.103
13 | SH3TC1 C453 | -0.0334 | -0.18 | 0.318 | -0.1
14 | SARM1 C117 (UniProt Q6SZW1) | 0.0968 | -0.191 | 0.00325 | -0.177
15 | SENP7 C125 (UniProt Q9BQF6) | -0.12 | 0.0544 | -0.155 | 0.11
16 | SENP6 C379 (UniProt Q9GZR1) | 0.0889 | 0.185 | -0.0499 | 0.145
17 | SETX C1915 (UniProt Q7Z333) | 0.269 | 0.463 | -0.503 | 0.0717
18 | SHMT2 C412 | -0.0321 | 0.0386 | -0.0863 | -0.0862
19 | SCML2 C350 (UniProt Q9UQR0) | 0.159 | -0.195 | -0.147 | -0.177
20 | SASH1 C927 (UniProt O94885) | 0.303 | -0.242 | 0.308 | -0.0611
21 | SHROOM3 C1403 | -0.244 | -0.465 | 0.0484 | -0.356
22 | SART3 C670 | 0.0493 | -0.0159 | -0.0453 | -0.0319
23 | SEPTIN6 C432 (UniProt Q14141) | 0.104 | -0.0208 | 0.287 | 0.141

From no. 19 to 20, copied from above:
Row | Target | log2 mean competition ratio ([1]; 50 µM) | log2 mean competition ratio ([1]; 200 µM) | log2 mean competition ratio ([2]; 50 µM) | log2 mean competition ratio ([2]; 200 µM)
19 | SCML2 C350 (UniProt Q9UQR0) | 0.159 | -0.195 | -0.147 | -0.177
20 | SASH1 C927 (UniProt O94885) | 0.303 | -0.242 | 0.308 | -0.0611

Additional records follow.

Row | Target | log2 mean competition ratio ([1]; 50 µM) | log2 mean competition ratio ([1]; 200 µM) | log2 mean competition ratio ([2]; 50 µM) | log2 mean competition ratio ([2]; 200 µM)
24 | SH2B1 C587 (UniProt Q9NRF2) | -0.101 | 0.498 | -0.249 | 0.661
25 | SEC22A C33 (UniProt Q96IW7) | 0.201 | 0.692 | 0.592 | 0.165
26 | SETX C1262 (UniProt Q7Z333) | 0.187 | 0.0592 | 0.582 | 0.0664
27 | SAMHD1 C80 (UniProt Q9Y3Z3) | -0.186 | -0.0427 | -0.345 | 0.0524
28 | SASS6 C156 (UniProt Q6UVJ0) | -0.0935 | 0.385 | 0.187 | 0.0986
29 | SEC23B C74 (UniProt Q15437) | 0.152 | -0.0886 | -0.362 | 0.121
30 | SBDS C84 (UniProt Q9Y3A5) | -0.428 | 0.291 | -0.352 | 0.328
31 | SEC23A C61 (UniProt Q15436) | -0.107 | 0.467 | -0.438 | 0.109
32 | SEMA4B C753 (UniProt Q9NPR2) | 0.026 | 0.00485 | 0.0362 | 0.122
33 | SBF1 C570 (UniProt O95248) | -0.106 | -0.268 | -0.383 | -0.233
34 | SCYL3 C280 (UniProt Q8IZE3) | 0.0304 | -0.207 | -0.459 | -0.246
35 | SDSL C38 (UniProt Q96GA7) | 0.0276 | 0.157 | 0.0135 | 0.152
36 | SDCBP C239 (UniProt O00560) | 0.0827 | -0.259 | -0.345 | -0.402
37 | SGPP1 C399 (UniProt Q9BX95) | 0.298 | 0.292 | 0.338 | 0.348
38 | SH3D19 C718 (UniProt Q5HYK7) | 0.0203 | -0.089 | 0.166 | -0.238
39 | SIRT5 C181 (UniProt Q9NXA8) | -0.187 | -0.643 | 0.176 | -0.0581
40 | SEC61B C39 (UniProt P60468) | 0.0412 | 0.0734 | 0.0917 | 0.0987
41 | SEPTIN10 C325 (UniProt Q9P0V9) | -0.268 | -0.214 | 0.182 | -0.401
42 | SAE1 C342 | -0.105 | -0.108 | -0.0243 | -0.0548
43 | SH3RF1 C107 (UniProt Q7Z6J0) | 0.169 | -0.111 | 0.0351 | 0.152
44 | SANBR C164 | -0.408 | 0.0916 | -0.359 | 0.164
45 | SH3PXD2A C995 (UniProt Q5TCZ1) | 0.0951 | -0.0591 | 0.0966 | 0.0451
